Results: patent US20030180735A1, “Screening method” (priority 1999, published 2003)

Tested on: primary human neutrophils
Test: Neutrophil gene expression, Incyte LifeGrid microarray
Assay type: cell-based
Details: GM-CSF (50U)
Method: Primary human neutrophils are isolated and purified from peripheral blood of normal healthy individuals. Neutrophils are resuspended in serum containing culture medium together with GM-CSF (50U) at a concentration of 2×10^6/ml, and cultured for 0 h (control), 2 h, 4 h and 6 h at 37° C. After these times, total cellular RNA is extracted and this used as the starting material for analysis of gene expression changes.
Primary human neutrophils are isolated and purified from peripheral blood of normal healthy individuals. Neutrophils are resuspended in serum containing culture medium together with GM-CSF (50U) at a concentration of 2×10^6/ml, and cultured for 0 h (control), 2 h, 4 h and 6 h at 37° C. After these times, total cellular RNA is extracted and this used as the starting material for analysis of gene expression changes using the Incyte “LifeGrid” microarray. Following cluster analysis, a cluster of genes are identified that contained several genes involved in neutrophil survival and whose transcription is up—regulated upon GM-CSF treatment. This cluster, which included BcI2-A1 (a ‘known’ antiapoptotic neutrophil BCL2 family member) is termed the ‘survival’ cluster (See FIG. 14). Among these genes, one group that could be clearly identified are those genes whose protein products are involved in protecting the cell against an increased oxidative environment (FIG. 14). […] Since all these gene products are attenuators of the oxidative cellular response it is indicative that GM-CSF protects the cell by reducing the harmful effects of reactive oxygen species. The corollary therefore is that spontaneous apoptosis must be due to an uncontrolled oxidative environment within the cell. Furthermore, this reaffirms that the neutrophils response to reactive oxidative species is […] of the glutathione system.
Methodology is as described by manufacturer, for Human LifeGrid™ arrays. Essentially, total cellular RNA (1 μg to 20 μg) or polyA+ mRNA (100 ng to 5 μg) is incubated with an oligo (dT) primer. Primed RNA is reverse transcribed to first stand cDNA in a reaction containing M-MLV reverse transcriptase (RT; alternatively Superscript II is used (Life Sciences)), RT buffer, dNTPs and [α-^33P] dCTP (2000-4000 Ci/mmol) at 42° C. for 1 to 5 h.
Methodology is as described by manufacturer, for Human LifeGrid™ arrays.

Substance: GM-CSF: well-characterised neutrophil growth/survival factor (cytokine)
- number of genes changing expression >2-fold vs control 0 h (2-6 h, of ˜8000 genes on filter): greater than 360 genes
- number of genes down-regulated (2 h post-isolation): ~230 genes
- number of genes up-regulated (2 h post-isolation): 16 genes
- number of genes up-regulated (4 h post-isolation): 65 genes
- number of genes up-regulated (6 h post-isolation): 155 genes
